According to the supplement of paper PMC3334620:
In all, about 33,000 sequences were measured (“E-score (-0.5 to 0.5)”: median about -0.015, highest 2% from about 0.3 on). The list shows a part of the results.

These sequences were tested against T1, Abf1 (UniProt P14164) (assay: PBM E-score (8-mer binding enrichment) (E-score (-0.5 to 0.5)); higher = stronger / more preferred TF binding). Details: protein concentration: 200 nM; construct: GST-full length.
T1 sequence: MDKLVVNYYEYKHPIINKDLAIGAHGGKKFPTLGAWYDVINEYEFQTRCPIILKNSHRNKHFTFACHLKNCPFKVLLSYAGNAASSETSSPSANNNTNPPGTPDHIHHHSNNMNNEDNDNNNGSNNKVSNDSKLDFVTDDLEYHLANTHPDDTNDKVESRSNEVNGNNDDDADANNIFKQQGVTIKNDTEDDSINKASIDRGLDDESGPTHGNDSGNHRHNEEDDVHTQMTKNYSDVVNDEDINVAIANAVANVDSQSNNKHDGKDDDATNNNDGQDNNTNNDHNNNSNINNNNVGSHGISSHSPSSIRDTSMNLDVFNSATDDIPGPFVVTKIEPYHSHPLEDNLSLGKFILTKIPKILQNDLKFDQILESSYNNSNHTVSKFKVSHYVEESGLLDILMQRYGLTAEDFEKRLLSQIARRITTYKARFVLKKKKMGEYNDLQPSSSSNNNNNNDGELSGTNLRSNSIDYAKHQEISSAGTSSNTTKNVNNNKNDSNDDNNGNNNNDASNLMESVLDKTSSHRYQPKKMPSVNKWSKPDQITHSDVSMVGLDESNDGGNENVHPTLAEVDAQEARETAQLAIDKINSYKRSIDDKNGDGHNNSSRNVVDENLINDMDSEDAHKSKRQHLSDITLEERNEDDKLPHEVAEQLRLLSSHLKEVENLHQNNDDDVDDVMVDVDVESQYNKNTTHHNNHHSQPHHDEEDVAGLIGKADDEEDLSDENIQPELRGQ
Outline: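 Detection of bound protein used fluorescent anti-GST, with scans normalised by masliner. The proteins were GST-tagged yeast transcription factors applied at about 100-200 nM to universal all-10-mer Agilent arrays made double-stranded by primer extension. Each ungapped eight-base word, pooled with its reverse complement, was scored with an E-score from the Universal PBM Analysis Suite.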

| Sequence | PBM E-score |
| --- | --- |
| CGAAGTAA | 0.0902 |
| AGGGATGA | 0.0956 |
| CAGAATTA | -0.156 |
| CAGTGGCA | -0.234 |
| GTTCCATA | -0.104 |
| CAGCAAGG | -0.192 |
| GAGGAAGA | -0.0536 |
| ACAAATGT | 0.201 |
| AAATTTCC | 0.075 |
| AGTAGGAT | 0.0637 |
| AGCTGCAT | -0.0357 |
| CACCTACG | 0.0432 |
| ATACTAGA | 0.17 |
| TTCCAAAA | 0.0928 |
| AACGACTG | 0.114 |
| CGCGGGTA | -0.0614 |
| ATGAGTTA | 0.0988 |
| ACCTAGTA | -0.0833 |
| AAGATAAG | 0.131 |
| ACCTATCA | -0.021 |
| CACGGCGG | 0.00732 |
| CTATACGA | 0.327 |

| Sequence | PBM E-score |
| --- | --- |
| ATATGCTC | 0.135 |
| ATACGCAT | 0.0882 |
| TTCTGCAA | 0.111 |
| AAGGCCCA | -0.0881 |
| AGATCGTG | 0.273 |
| CACGCATG | 0.00322 |
| CCTGGTCA | -0.0612 |
| AATCATCT | 0.184 |
| AAGACTTA | 0.0156 |
| AACCGAAA | 0.0684 |
| AGTCTGCC | -0.231 |
| AGACCTGC | -0.137 |
| CATACCGA | -0.038 |
| CCCCCAGC | -0.331 |
| GGTCCCAA | -0.136 |
| CGACTGGA | -0.0586 |
| TCTGCCAA | 0.0381 |
| GGCCTTAA | 0.0402 |
| AAGCAGGA | 0.0785 |
| CCATATGG | -0.0604 |
| ATGTGACC | 0.0245 |
| ATGAGAGA | -0.0525 |

| Sequence | PBM E-score |
| --- | --- |
| CTGAGTCA | 0.0134 |
| AACCAAGT | 0.179 |
| AGACGATA | 0.27 |
| AATGCGGA | -0.0199 |
| TACCGGTA | -0.238 |
| GGGCTGTA | -0.205 |
| ATAGGAGA | -0.169 |
| GGCCGTAA | 0.121 |
| AGCTAGAT | 0.104 |
| TAGGTTCA | -0.164 |
| CCCCTTGA | -0.179 |
| ATCCACAC | -0.103 |
| TACTTCCA | 0.0905 |
| CGTCGGTC | 0.0377 |
| AAGTGTCG | 0.081 |
| GATGATCA | 0.329 |
| GCCATACA | 0.0623 |
| ACTAATCG | 0.0732 |
| GAGCACGA | 0.171 |
| CGCGCTAG | 0.1 |
| TGCCTACA | -0.212 |
| ACTAGGGG | -0.143 |

Part of the list above, with bars between the fields:
Sequence | PBM E-score
AGACGATA | 0.27
GGGCTGTA | -0.205
TAGGTTCA | -0.164
AAGTGTCG | 0.081
ACTAGGGG | -0.143

Quoted from above (two entries):

| Sequence | PBM E-score |
| --- | --- |
| AAGATAAG | 0.131 |
| ACCTATCA | -0.021 |

The results go on.

| Sequence | PBM E-score |
| --- | --- |
| AATGTAAA | 0.204 |
| GTGGTTAA | 0.142 |
| GCGGGGAC | -0.161 |
| CGTCGTGC | 0.315 |
| AGGTATAA | 0.17 |
| GCAGACAC | -0.0656 |
| ATCAAATG | 0.122 |
| CCGGAATA | -0.0142 |
| GTTAAGCA | -0.103 |
| GTTAGCTA | -0.222 |
| CGGCATGC | -0.114 |
| AGAATGCA | -0.0484 |
| AACCATGC | 0.0503 |
| AGTTAAAC | 0.00744 |
| ACGGCCAG | 0.212 |
| AAAGTCAA | -0.082 |
| TAAATGAA | -0.0744 |
| GCTCTGAC | -0.0706 |
| CCGGAACA | 0.0276 |
| ACCACATG | 0.0821 |
